The text below walks through data of article doi:10.1101/2024.12.02.626147.

Sequences of proteins named here, by UniProt entry; tags and fusion partners are left off.
UniProt Q61188: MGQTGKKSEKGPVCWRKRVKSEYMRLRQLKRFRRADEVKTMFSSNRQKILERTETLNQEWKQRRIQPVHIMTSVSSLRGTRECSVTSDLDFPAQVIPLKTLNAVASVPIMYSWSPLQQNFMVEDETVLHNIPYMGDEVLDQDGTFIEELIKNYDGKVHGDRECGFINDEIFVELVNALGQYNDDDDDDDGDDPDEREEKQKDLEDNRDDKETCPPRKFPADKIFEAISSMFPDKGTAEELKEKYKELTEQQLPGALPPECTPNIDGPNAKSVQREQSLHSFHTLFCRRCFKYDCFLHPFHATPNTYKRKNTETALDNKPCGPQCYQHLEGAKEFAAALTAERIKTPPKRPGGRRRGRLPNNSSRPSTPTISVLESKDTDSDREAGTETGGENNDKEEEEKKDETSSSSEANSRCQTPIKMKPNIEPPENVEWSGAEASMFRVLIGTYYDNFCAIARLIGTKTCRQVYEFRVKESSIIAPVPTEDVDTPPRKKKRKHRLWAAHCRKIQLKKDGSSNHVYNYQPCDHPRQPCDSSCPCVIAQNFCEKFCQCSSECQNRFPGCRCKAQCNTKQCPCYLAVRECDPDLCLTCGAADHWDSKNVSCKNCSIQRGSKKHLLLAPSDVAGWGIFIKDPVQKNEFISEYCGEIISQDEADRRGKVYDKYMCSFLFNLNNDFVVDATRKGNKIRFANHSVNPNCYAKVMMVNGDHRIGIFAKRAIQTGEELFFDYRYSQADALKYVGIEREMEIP

The assay deals with T1, Nanog (mouse (endogenous in E14Tg2a)) (UniProt Q80Z64).
T1 sequence: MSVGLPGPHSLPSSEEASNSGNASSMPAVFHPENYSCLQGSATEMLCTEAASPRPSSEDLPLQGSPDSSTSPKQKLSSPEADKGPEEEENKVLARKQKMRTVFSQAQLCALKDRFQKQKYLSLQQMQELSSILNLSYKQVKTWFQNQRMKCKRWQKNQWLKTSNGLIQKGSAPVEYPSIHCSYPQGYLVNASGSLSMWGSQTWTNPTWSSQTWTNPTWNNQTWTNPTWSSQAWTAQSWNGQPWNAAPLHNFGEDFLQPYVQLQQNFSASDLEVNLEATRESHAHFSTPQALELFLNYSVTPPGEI
The experiment in a line: co-IP.

No constants are given. Whether binding was seen depends on the method and setting. Binding seen in cells or lysates may run through a third protein. Some results given as binding are weak or reduced against the parent protein; the word gives no strength.

Consider Ezh2 (from UniProt Q61188 1-746), for which the binding entry was “binds”.
